The target in the experiment is GST-tagged HMG domain of TCF/Pangolin (Drosophila). Description: pull-down; GST pulldown: 2 µg His-C-clamp with 2 µg GST or GST-HMG, 1 h at 4°C in 20 mM Tris-HCl pH 7.62, 150 mM NaCl, 1% Triton X-100; then Glutathione Sepharose beads for 2 h; anti-His Western blot. Also done after pretreatment with micrococcal nuclease (5 mM CaCl2) or OPA, with no effect on binding; both purified. In general terms: In western blotting, separated proteins are transferred to a membrane and probed.

These are yes or no findings as the source states them, for the method shown. Binding calls can cover weak binding; strength is not graded here. Sequences can lack the tags named with a protein.

DSGGNNMKKCRARFGLDQQSQWCKPCRRKKKCIRYMEALNGNGPAE (domain or fragment, UniProt P91943 363-408) [His-tagged C-clamp fragment of TCF/Pangolin (wild type)]: the binding result is reported as “binds”.

(Values after paper PMC3896468.)
